Measurements reported in PubChem BioAssay AID2685 (National Center for Advancing Translational Sciences (NCATS), 2010).
The other results are listed elsewhere or left out. The main result of the screen is listed elsewhere. These columns were measured beside it and carry no call. The list favours compounds with an active or inconclusive main result. Potencies come from curve fits of mixed quality, noted in brackets.

Assay: qHTS Assay for Lipid Storage Modulators in Drosophila S3 Cells;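 for cell number change: cells counted by Cell Tracker Red CMTPX staining in the red channel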
Settings: BODIPY lipid droplet fluorescence, 18-24 h; for cell number change: measured here: cell count max response, cells fed with added oleic acid
Method in brief: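 Laser-scanning cytometry quantifies lipid droplet accumulation (500–530 nm total intensity; droplet/cell object ratio) in oleic acid-fed (400 uM added) Drosophila S3 cells treated with a concentration series. 20 uM Triacsin C defined 100% inhibition.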

[1] = measured here: lipid fluorescence (Fed channel) AC50, cells fed with added oleic acid
[2] = measured here: cell number channel AC50, cells fed with added oleic acid

Row | SMILES | cell number change [%] | AC50 [1] | AC50 [2]
1 | NC(=O)c1ccsc1NC(=O)COc1ccccc1 | 232 | 20.6 µM [rising, partial curve] | 
2 | Cc1cc(=O)[nH]c2n[nH]c(-c3ccccc3)c12 | 3.68 | 0.651 µM [falling, single point] | 
3 | CCN(CC)c1ccc(N2C(=O)c3ccccc3C2=O)cc1 | 17.6 | 1.84 µM [rising, partial curve, poor fit] | 
4 | Cc1c(C(=O)NCCN2CCOCC2)oc2ccc(Br)cc12 | 30.9 | 20.6 µM [rising, partial curve, poor fit] | 16.4 µM [rising, single point]
5 | CCN(CC(=O)Nc1ccc2c(c1)OCCO2)C(=O)CN1C(=O)NC(C)(c2ccc(C)cc2)C1=O (stereo not given) | 4.26 |  | 
6 | CC(Sc1nncn1C)C(=O)Nc1ccc(N2CCCCC2)cc1 (stereo not given) | 2.53 | 16.4 µM [rising, single point] | 
7 | CCCNC(=O)c1onc(CSc2nc3ccccc3[nH]2)c1C(=O)NCCC | -16.2 | 20.6 µM [falling, single point] | 
8 | C/C(=N\NC(=O)C1COc2ccccc2O1)c1ccc(Cl)s1 (stereo not given) | 6.47 | 29.1 µM [rising, single point] | 6.51 µM [rising, single point]
9 | CNC(=O)c1ccccc1S(=O)c1ccccc1COC(C)=O (stereo not given) | 52 | 14.6 µM [rising, partial curve] | 16.4 µM [rising, single point]
10 | CC12C(=O)N(Cc3ccccc3)C(=O)C1C1C=CC2C1 (stereo not given) | 2.37 |  | 
11 | O=C(NCc1ccc(F)cc1Cl)C1CC(=O)N(C2CCCCCCC2)C1 (stereo not given) | 11.2 | 29.1 µM [rising, single point] | 
12 | CCCC(=O)N1CCN(c2ccc([N+](=O)[O-])cc2Cl)CC1 | -4.32 | 29.1 µM [falling, single point] | 
13 | O=C(NCC(c1ccco1)N1CCc2ccccc2C1)c1ccccc1Cl (stereo not given) | 32.4 |  | 
14 | CCOc1ccccc1C(=O)Nc1nnc(SCC(=O)N2CCOCC2)s1 | 3.2 | 0.731 µM [rising, full curve, poor fit] | 
15 | CC(C)Nc1ncnc2ccc(Br)cc12 | -62.1 | 16.4 µM [falling, partial curve] | 5.8 µM [falling, full curve]
16 | Cc1ccc(C)c(C(=O)Nc2nc3ccccc3[nH]2)c1 | -19 | 29.1 µM [falling, single point] | 
17 | N#CCNC(=O)c1cccn1-c1ncc(C(F)(F)F)cc1Cl | -6 |  | 
18 | COCCCn1c(=O)c2ccccc2n(CC(=O)NCCC2=CCCCC2)c1=O | 1.25 | 16.4 µM [falling, partial curve, poor fit] | 
19 | O=C(NCc1cccs1)c1cnc(Cl)c(Cl)c1 | 49.2 | 16.4 µM [rising, single point] | 0.146 µM [falling, full curve, poor fit]
20 | Cc1ccc2nc(C)cc(C(=O)OCC(=O)Nc3cccnc3Cl)c2c1 | -14.9 |  | 0.731 µM [rising, single point]

Row | SMILES | cell number change [%] | AC50 [1] | AC50 [2]
21 | CCN(CC)CCCNC(=O)c1cc2nc(-c3ccccc3)cc(C(F)(F)F)n2n1 | 12.5 | 1.64 µM [rising, partial curve] | 
22 | COc1cccc(Cn2cnc3c(NS(=O)(=O)c4ccc(Cl)cc4)c(C)c(C)cc32)c1 |  | 0.731 µM [rising, full curve] | 2.06 µM [rising, partial curve]
23 | O=C(CSc1nc2ccccc2[nH]1)N1CCN(S(=O)(=O)c2ccc(Cl)cc2)CC1 | 13.4 |  | 0.184 µM [rising, full curve, poor fit]
24 | CC(C)CCN(C(=O)COc1ccc(C#N)cc1)c1c(N)n(Cc2ccccc2)c(=O)[nH]c1=O |  | 29.1 µM [falling, single point] | 
25 | CCCCCCCCCOC(=O)C[n+]1csc(CCO)c1C | 12.7 | 18.4 µM [rising, single point] | 0.517 µM [falling, single point]
26 | c1ccc2c(c1)CCCN2c1nc2ccccc2n2cnnc12 | -4.88 | 0.58 µM [rising, full curve] | 
27 | CC(Cc1n[nH]c(=S)n1N)c1ccccc1 (stereo not given) |  | 6.51 µM [falling, single point] | 6.51 µM [falling, single point]
28 | Cc1oc(-c2ccc(Cl)cc2)nc1CS(=O)CC(=O)NCc1ccc2c(c1)OCO2 (stereo not given) | 10.1 | 8.2 µM [falling, single point] | 
29 | CCSc1nnc(NC(=O)CN(C)S(=O)(=O)c2ccc(F)cc2)s1 | 14.1 |  | 
30 | O=C(COC(=O)c1ccc(O)cc1)Nc1cccc(S(=O)(=O)NC2=NCCCCC2)c1 | 18.1 |  | 
31 | CCn1c(CNC(=O)c2ccccc2F)cc2cc(C)ccc21 | -4.91 |  | 
32 | Cc1ccccc1-c1n[nH]c(=S)n1Cc1ccccc1 | 0.838 |  | 
33 | Cc1ccc(-c2cc(C(=O)N(C)Cc3cnn(C)c3C)c3cc(Br)ccc3n2)cc1 | -10.4 | 18.4 µM [rising, single point] | 
34 | COc1cc(C(=O)Nc2sc3c(c2C(=O)NCc2ccco2)CCCC3)cc(OC)c1OC | -72.7 |  | 6.51 µM [falling, partial curve]
35 | N#CC1=C(N)SC(N)=C(C#N)C1CCc1ccccc1 |  | 4.11 µM [rising, partial curve] | 6.51 µM [rising, single point]
36 | COc1ccc(CCN2CC(C(=O)Nc3nnc(Cc4ccccc4)s3)CC2=O)cc1OC (stereo not given) | -0.796 | 0.0164 µM [rising, full curve, poor fit] | 
37 | CSc1nc2ccccc2cc1/C=C(\C#N)c1ccccc1 | 78.3 |  | 18.4 µM [rising, single point]
38 | O=S1(=O)N=C(Nc2ccc(S(=O)(=O)N3CCCCC3)cc2)c2ccccc21 | -14 |  | 
39 | Cc1ccc(S(=O)(=O)Nc2cc(=O)[nH]c(SCC(=O)Nc3ccccc3C(F)(F)F)n2)cc1 | -0.952 |  | 
40 | O=C(NCc1ccccc1Cl)C1CCC(=O)N(C2CCCC2)C1 (stereo not given) | 6.57 | 29.1 µM [rising, single point] | 

Of the compounds above, 3 contain an aryl methoxy group:
Row | SMILES | cell number change [%] | AC50 [1] | AC50 [2]
22 | COc1cccc(Cn2cnc3c(NS(=O)(=O)c4ccc(Cl)cc4)c(C)c(C)cc32)c1 |  | 0.731 µM [rising, full curve] | 2.06 µM [rising, partial curve]
34 | COc1cc(C(=O)Nc2sc3c(c2C(=O)NCc2ccco2)CCCC3)cc(OC)c1OC | -72.7 |  | 6.51 µM [falling, partial curve]
36 | COc1ccc(CCN2CC(C(=O)Nc3nnc(Cc4ccccc4)s3)CC2=O)cc1OC (stereo not given) | -0.796 | 0.0164 µM [rising, full curve, poor fit] | 
